The exact form of at least one protein or probe is not confirmed. Negatives hold for the conditions tested. For part of these data: Tags and fusion partners may be left off the protein sequences shown.
Assays:
Experiment in all cases: activity in cells
[1] = test system: Bxb1 recombinase (Mycobacterium smegmatis bacteriophage Bxb1); conditions: excision not detected, S. pombe, attP/attB pair, protein in cells
[2] = test system: T1, TP901-1 recombinase (Lactococcus lactis bacteriophage TP901-1); conditions: excision not detected, S. pombe, attP/attB pair; protein in cells; only the site is given
T1 sequence (limits assumed): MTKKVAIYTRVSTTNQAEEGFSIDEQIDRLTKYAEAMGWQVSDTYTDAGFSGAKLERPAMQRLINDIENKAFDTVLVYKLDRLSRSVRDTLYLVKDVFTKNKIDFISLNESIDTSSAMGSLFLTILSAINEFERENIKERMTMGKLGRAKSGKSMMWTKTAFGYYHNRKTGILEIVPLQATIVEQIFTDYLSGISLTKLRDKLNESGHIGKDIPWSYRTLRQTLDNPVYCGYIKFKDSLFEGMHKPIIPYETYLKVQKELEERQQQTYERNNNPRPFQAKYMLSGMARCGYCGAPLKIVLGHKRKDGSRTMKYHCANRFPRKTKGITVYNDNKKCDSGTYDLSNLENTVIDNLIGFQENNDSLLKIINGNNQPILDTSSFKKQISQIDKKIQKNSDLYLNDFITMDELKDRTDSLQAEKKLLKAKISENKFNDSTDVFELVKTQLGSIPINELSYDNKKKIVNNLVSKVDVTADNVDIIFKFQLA

[3] = molecular target: phiC31 integrase (Streptomyces bacteriophage phiC31) (UniProt Q9T221); conditions: excision not detected, S. pombe, attP/attB pair, protein in cells
[4] = test system: T2, U153 recombinase (Listeria monocytogenes bacteriophage U153); conditions: excision not detected, S. pombe, attP/attB pair, protein in cells
T2 sequence (limits assumed): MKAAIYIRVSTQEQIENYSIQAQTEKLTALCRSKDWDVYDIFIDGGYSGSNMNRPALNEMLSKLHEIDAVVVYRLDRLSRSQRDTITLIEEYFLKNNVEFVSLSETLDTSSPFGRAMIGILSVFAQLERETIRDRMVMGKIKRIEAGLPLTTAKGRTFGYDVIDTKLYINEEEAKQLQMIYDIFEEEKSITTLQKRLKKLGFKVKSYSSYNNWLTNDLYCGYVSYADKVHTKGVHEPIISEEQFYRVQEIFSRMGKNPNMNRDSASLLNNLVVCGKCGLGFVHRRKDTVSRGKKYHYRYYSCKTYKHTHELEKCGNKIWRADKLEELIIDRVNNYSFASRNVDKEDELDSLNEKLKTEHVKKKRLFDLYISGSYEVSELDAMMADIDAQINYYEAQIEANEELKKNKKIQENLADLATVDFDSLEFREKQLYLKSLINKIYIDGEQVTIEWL

[5] = test system: T3, ParA recombinase (plasmids RK2/RP4); conditions: excision not detected, S. pombe; protein in cells
T3 sequence (limits assumed): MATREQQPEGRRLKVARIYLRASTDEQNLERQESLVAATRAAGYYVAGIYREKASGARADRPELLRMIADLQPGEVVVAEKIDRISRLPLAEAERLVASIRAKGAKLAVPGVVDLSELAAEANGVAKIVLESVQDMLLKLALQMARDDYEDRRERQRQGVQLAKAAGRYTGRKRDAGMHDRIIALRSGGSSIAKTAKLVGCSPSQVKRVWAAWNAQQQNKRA

[6] = molecular target: T4, Tn1721 resolvase (transposon Tn1721, Escherichia coli) (UniProt P0C1G2); conditions: excision not detected, S. pombe; protein in cells
T4 sequence (limits assumed): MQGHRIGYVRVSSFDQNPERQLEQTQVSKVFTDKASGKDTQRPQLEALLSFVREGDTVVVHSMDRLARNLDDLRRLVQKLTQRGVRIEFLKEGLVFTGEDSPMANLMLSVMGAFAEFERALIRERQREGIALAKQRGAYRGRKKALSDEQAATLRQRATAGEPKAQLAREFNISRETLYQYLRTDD

[7] = test system: T5, Tn5053 resolvase (transposon Tn5053, Xanthomonas sp. W17); conditions: excision not detected, S. pombe; protein in cells
T5 sequence: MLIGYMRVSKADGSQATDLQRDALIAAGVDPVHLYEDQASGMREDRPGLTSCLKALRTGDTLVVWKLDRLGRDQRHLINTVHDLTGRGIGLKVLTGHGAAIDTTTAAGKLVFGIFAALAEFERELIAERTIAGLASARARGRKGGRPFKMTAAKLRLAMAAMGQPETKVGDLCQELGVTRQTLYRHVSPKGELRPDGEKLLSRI

[8] = test system: T6, CinH recombinase (Acinetobacter sp. ED45-25 plasmid); conditions: excision not detected, S. pombe; protein in cells
T6 sequence (limits assumed): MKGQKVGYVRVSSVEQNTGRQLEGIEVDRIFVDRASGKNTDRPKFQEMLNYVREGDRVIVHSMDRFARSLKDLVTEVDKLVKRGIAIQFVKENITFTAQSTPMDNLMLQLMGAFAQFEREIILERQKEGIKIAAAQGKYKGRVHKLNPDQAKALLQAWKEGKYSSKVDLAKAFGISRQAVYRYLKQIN

Measured: activity on this sequence

AACTTTTTCGGATCAAGCTATGAAGGACGCAAAGAGGGAACTAAACACTTG (double strand) [U153 attB]
not active: [1]; only the site is given | [2] | [3]; only the site is given

ATGCCAACACAATTAACATCTCAATCAAGGTAAATGCTTTTTGCTTTTTTTGCGACGTC (double strand) [TP901-1 attB]
not active: [1]; only the site is given | [4]; only the site is given | [3]; only the site is given

CAGTGGTTTGTCTGGTCAACCACCGCGGTCTCAGTGGTGTACGGTACAAACCC (double strand) [Bxb1 attP]
not active: [2] | [4]; only the site is given | [3]; only the site is given

CCGGCTTGTCGACGACGGCGGTCTCCGTCGTCAGGATCATCC (double strand) [Bxb1 attB]
not active: [2] | [4]; only the site is given | [3]; only the site is given

CGTTACTTTGGGGTATACCCTAAAGTTACAATATAAAAGTTCTTAAAACTATGTAACATTTAAATGATTTTTAACCATATATAACATGTAACTTTGATATTTAAGATTTATAATTTACG (double strand) [CinH RS2 site]
not active: [5] | [6] | [7]

CTGTCACATATACGTTCGATTATGTGACAGTGTGAGCCAGAAAGTTCTCGCCGTCAAAAACTGTCACTTAACCCGTCATTTAGTCTAAGACCTGCAAACGGCCATTCAGGCTCGTAATGTGACAAAAACTCCGGCGGGATGCCCTCCTTGGTGAACGTGGCGCGCAAACGTTCCAGGGATTCGGGGTCG (double strand) [Tn5053 res site]
not active: [8] | [5] | [6]

TCAAATTGGGTATACCCATTTGGGCCTAGTCTAGCCGGCATGGCGCATTACAGCAATACGCAATTTAAATGCGCCTAGCGCATTTTCCCGACCTTAATGCGCCTCGCGCTGTAGCCTCACGCCCACATATGAG (double strand) [ParA MRS site]
not active: [8] | [6] | [7]

TCCAACTCGCTTAATTGCGAGTTTTTATTTCGTTTATTTCAATTAAGGTAACTAAAAAACTCCTT (double strand) [TP901-1 attP]
not active: [1] | [4] | [3]

TGTCAATCTAGGCTATACCCTAACTTGATGTCAGGCAGGGCCGCGCCGCTTCGTCAGAATAGAGTCTGCTTTCCCATTTTTTGACACATGCCCGCGAAGGTTATAGATTTCAGCCTGACA (double strand) [Tn1721 res site]
not active: [8] | [5] | [7]

TTGTTTAGTTCCTCGTTTTCTCTCGTTGGACGGAAACGAATCGAGAAACTAAAATTA (double strand) [U153 attP]
not active: [1]; only the site is given | [2] | [3]; only the site is given

— patent US20110136237
